In PubChem BioAssay (NCATS):
This is one part of the list. The main result of the screen is listed elsewhere. These columns were measured beside it and carry no call. Compounds called inactive in the main read-out are mostly missing here. The note in brackets gives the kind of curve behind each potency; many fits are weak.

Experiment: qHTS for identification of novel therapeutic agents for treatment of microphthalmiaassociated transcription factor (MiT) renal cell carcinoma (RCC) (AID 1963991)
Details: CellTiter-Glo, 48 h; for z-score: stronger effect = lower value
How it was run: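 UOK109/UOK124/UOK145 (TFE3 fusions, three partners); 500 cells/well; MIPE v4.0, 1912 cpds, 11 conc.; 48 h, 37 C; CellTiter-Glo, 15 min RT; lum. Norm.: DMSO 100%, empty 0%.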

[1] = TFE3-RCC UOK109 viability, measured here: UOK109 Z-AUC
[2] = TFE3-RCC viability, measured here: UOK124 Z-AUC
[3] = TFE3-RCC viability, measured here: UOK124 cell viability
[4] = TFE3-RCC viability, measured here: UOK145 Z-AUC
[5] = TFE3-RCC viability, measured here: UOK145 cell viability

Row | Compound | z-score [1] | z-score [2] | AC50 [3] | z-score [4] | AC50 [5]
1 | COc1ccc(-c2oc3c(CC=C(C)C)c(OC4O[C@H](CO)[C@@H](O)[C@H](O)[C@@H]4O)cc(O)c3c(=O)c2OC2O[C@@H](C)[C@H](O)[C@@H](O)[C@@H]2O)cc1 (stereo not given in full) | 0.504 | 0.236 | 14.8 µM [falling, partial curve] | -0.238 | 20.9 µM [falling, partial curve]
2 | CC(C)(O)Cn1c(NC(=O)c2ccc(-c3cn[nH]c3)s2)nc2cc(CN3CCOCC3)ccc21 | -0.485 | -1.85 | 2.09 µM [falling, full curve] | -0.799 | 2.64 µM [falling, full curve]
3 | O=C(C=Cc1ccc(O)cc1)c1ccc(O)cc1O | 0.0113 | 0.519 | 23.5 µM [falling, single point] | -0.145 | 20.9 µM [falling, partial curve]
4 | CC1=C(CC(=O)O)c2cc(F)ccc2C1=Cc1ccc(S(C)=O)cc1 (stereo not given) | 0.815 | 0.444 | 37.2 µM [falling, single point] | 0.401 | 26.4 µM [falling, single point]
5 | C[C@@]12C(=O)OC(=O)[C@@]1(C)C1CCC2O1 | -2.09 | -1.01 | 2.96 µM [falling, full curve] | -0.206 | 4.69 µM [falling, full curve]
6 | CCCNC(=O)[C@H]1O[C@H]1C(=O)N[C@H](C(=O)N1CCC[C@@H]1C(=O)OC)C(C)CC (stereo not given in full) | -3.27 | 0.691 | 11.8 µM [falling, partial curve] | 0.872 | 14.8 µM [falling, partial curve]
7 | COC(=O)c1ccc2c(C(=Nc3ccc(N(C)C(=O)CN4CCN(C)CC4)cc3)c3ccccc3)c(O)[nH]c2c1 | -0.092 | 0.491 | 1.32 µM [falling, partial curve, poor fit] | 0.414 | 37.2 µM [falling, single point]
8 | CCCc1nn(C)c2c(=O)[nH]c(-c3cc(S(=O)(=O)N4CCN(C)CC4)ccc3OCC)nc12 | 0.299 | -0.401 | 26.4 µM [falling, single point] | -0.259 | 18.7 µM [falling, partial curve]
9 | CN[C@@H]1CN(c2ccc3c(=O)c(C(=O)O)cn(-c4nccs4)c3n2)C[C@@H]1OC | 0.759 | 1.78 | 2.04 µM [falling, partial curve] | 0.984 | 12.9 µM [falling, partial curve]
10 | C[C@@H](CN1CC(=O)NC(=O)C1)N1CC(=O)NC(=O)C1 | 0.325 | 0.956 | 2.64 µM [falling, full curve] | 0.403 | 37.2 µM [falling, partial curve, poor fit]
11 | CNC(=O)c1ccc(N2C(=S)N(c3cnc(C#N)c(C(F)(F)F)c3)C(=O)C23CCC3)cc1F | -0.513 | -0.209 | 26.4 µM [falling, partial curve, poor fit] | -1.24 | 1.66 µM [falling, full curve]
12 | COCCCN1CCC(NC(=O)c2cc(Cl)c(N)c3c2OCC3)CC1 | 0.261 | 0.479 | 29.6 µM [falling, partial curve, poor fit] | -0.0583 | 18.7 µM [falling, partial curve, poor fit]
13 | O=C(Nc1ncc(SCCN2CCCC2)s1)[C@]1(c2ccc(S(=O)(=O)C3CC3)cc2)C[C@@H]1C1CCCCC1 | 0.219 | -0.342 | 11.8 µM [falling, partial curve] | 0.364 | 26.4 µM [falling, single point]
14 | Cn1cc(C2=C(c3c4n(c5ccccc35)CCC(CN)C4)C(=O)NC2=O)c2ccccc21 (stereo not given) | 0.283 | -0.8 | 10.5 µM [falling, partial curve] | 0.385 | 26.4 µM [falling, partial curve]
15 | O=C(O)C[C@H](O)C[C@H](O)C=Cc1c(C2CC2)nc2ccccc2c1-c1ccc(F)cc1 | 0.158 | -0.627 | 4.69 µM [falling, full curve] | -0.0354 | 16.6 µM [falling, partial curve]
16 | CCOC(=O)[C@H](CCc1ccccc1)N[C@H]1CCc2ccccc2N(CC(=O)O)C1=O | 0.103 | -0.0662 | 20.9 µM [falling, partial curve] | 0.234 | 26.4 µM [falling, partial curve]
17 | CNc1nc(-c2ccc3c(N)n[nH]c3c2)cc(N2C[C@@H](C(=O)NC3CCCCC3)CC[C@@H]2C)n1 | -0.236 | -2.71 | 37.2 µM [falling, single point] | -0.301 | 14.8 µM [falling, partial curve]
18 | CO[C@@]12[C@H](COC(N)=O)C3=C(C(=O)C(C)=C(N)C3=O)N1C[C@@H]1N[C@@H]12 | 0.122 | -0.478 | 16.6 µM [falling, partial curve] | -0.502 | 1.32 µM [falling, full curve]

Retrieved one by one from above (2):
Row | Compound | z-score [1] | z-score [2] | AC50 [3] | z-score [4] | AC50 [5]
9 | CN[C@@H]1CN(c2ccc3c(=O)c(C(=O)O)cn(-c4nccs4)c3n2)C[C@@H]1OC | 0.759 | 1.78 | 2.04 µM [falling, partial curve] | 0.984 | 12.9 µM [falling, partial curve]
4 | CC1=C(CC(=O)O)c2cc(F)ccc2C1=Cc1ccc(S(C)=O)cc1 (stereo not given) | 0.815 | 0.444 | 37.2 µM [falling, single point] | 0.401 | 26.4 µM [falling, single point]
